Out of some 290,000 compounds screened, about 110 (0.038%) were called active. This list was built around the results that the source calls inconclusive (neither active nor inactive); the mix of calls is not that of the screen. Calls come from the whole dose curve; as a rule, active = well fitted inhibition curve with a large enough effect in the polarisation, with a control signal flat (not every such curve was filed as active); inconclusive = small, poorly fitted or top-dose-only effect, or effect the other way, or a change in a side signal; inactive = no such curve, though single readings can be large or run the other way; the % refers to the polarisation. A potency beside an inconclusive call is a rough fit, not a confirmed value. A note “side channel” means that the fit belongs to a control or component signal, not to the main read-out.
These compounds were tested against Histone-lysine N-methyltransferase 2A (Homo sapiens) (UniProt Q03164) (assay: qHTS Fluorescence Polarization Assay for Inhibitors of MLL CXXC domain - DNA interaction). Conditions: MLL-CXXC / FITC-HOXA9 DNA fluorescence polarization; activity change, negative = inhibition: at 115 µM (top of the series).
Procedure, shortened: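 Fluorescence polarization: 7 uM MLL-CXXC (stock) preincubated 5 min with compounds, then 50 nM fluorescein-HOX-A9 DNA (stock) added; 30 min ambient. Buffer 50 mM Tris-HCl pH 7.5, 50 mM NaCl, 1 mM DTT, 0.05% BSA.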
Potency is the fitted concentration of half-maximal effect.

Protein sequences, listed by entry. Tags and fused reporters are not part of them.
UniProt Q03164, whole entry, looked up: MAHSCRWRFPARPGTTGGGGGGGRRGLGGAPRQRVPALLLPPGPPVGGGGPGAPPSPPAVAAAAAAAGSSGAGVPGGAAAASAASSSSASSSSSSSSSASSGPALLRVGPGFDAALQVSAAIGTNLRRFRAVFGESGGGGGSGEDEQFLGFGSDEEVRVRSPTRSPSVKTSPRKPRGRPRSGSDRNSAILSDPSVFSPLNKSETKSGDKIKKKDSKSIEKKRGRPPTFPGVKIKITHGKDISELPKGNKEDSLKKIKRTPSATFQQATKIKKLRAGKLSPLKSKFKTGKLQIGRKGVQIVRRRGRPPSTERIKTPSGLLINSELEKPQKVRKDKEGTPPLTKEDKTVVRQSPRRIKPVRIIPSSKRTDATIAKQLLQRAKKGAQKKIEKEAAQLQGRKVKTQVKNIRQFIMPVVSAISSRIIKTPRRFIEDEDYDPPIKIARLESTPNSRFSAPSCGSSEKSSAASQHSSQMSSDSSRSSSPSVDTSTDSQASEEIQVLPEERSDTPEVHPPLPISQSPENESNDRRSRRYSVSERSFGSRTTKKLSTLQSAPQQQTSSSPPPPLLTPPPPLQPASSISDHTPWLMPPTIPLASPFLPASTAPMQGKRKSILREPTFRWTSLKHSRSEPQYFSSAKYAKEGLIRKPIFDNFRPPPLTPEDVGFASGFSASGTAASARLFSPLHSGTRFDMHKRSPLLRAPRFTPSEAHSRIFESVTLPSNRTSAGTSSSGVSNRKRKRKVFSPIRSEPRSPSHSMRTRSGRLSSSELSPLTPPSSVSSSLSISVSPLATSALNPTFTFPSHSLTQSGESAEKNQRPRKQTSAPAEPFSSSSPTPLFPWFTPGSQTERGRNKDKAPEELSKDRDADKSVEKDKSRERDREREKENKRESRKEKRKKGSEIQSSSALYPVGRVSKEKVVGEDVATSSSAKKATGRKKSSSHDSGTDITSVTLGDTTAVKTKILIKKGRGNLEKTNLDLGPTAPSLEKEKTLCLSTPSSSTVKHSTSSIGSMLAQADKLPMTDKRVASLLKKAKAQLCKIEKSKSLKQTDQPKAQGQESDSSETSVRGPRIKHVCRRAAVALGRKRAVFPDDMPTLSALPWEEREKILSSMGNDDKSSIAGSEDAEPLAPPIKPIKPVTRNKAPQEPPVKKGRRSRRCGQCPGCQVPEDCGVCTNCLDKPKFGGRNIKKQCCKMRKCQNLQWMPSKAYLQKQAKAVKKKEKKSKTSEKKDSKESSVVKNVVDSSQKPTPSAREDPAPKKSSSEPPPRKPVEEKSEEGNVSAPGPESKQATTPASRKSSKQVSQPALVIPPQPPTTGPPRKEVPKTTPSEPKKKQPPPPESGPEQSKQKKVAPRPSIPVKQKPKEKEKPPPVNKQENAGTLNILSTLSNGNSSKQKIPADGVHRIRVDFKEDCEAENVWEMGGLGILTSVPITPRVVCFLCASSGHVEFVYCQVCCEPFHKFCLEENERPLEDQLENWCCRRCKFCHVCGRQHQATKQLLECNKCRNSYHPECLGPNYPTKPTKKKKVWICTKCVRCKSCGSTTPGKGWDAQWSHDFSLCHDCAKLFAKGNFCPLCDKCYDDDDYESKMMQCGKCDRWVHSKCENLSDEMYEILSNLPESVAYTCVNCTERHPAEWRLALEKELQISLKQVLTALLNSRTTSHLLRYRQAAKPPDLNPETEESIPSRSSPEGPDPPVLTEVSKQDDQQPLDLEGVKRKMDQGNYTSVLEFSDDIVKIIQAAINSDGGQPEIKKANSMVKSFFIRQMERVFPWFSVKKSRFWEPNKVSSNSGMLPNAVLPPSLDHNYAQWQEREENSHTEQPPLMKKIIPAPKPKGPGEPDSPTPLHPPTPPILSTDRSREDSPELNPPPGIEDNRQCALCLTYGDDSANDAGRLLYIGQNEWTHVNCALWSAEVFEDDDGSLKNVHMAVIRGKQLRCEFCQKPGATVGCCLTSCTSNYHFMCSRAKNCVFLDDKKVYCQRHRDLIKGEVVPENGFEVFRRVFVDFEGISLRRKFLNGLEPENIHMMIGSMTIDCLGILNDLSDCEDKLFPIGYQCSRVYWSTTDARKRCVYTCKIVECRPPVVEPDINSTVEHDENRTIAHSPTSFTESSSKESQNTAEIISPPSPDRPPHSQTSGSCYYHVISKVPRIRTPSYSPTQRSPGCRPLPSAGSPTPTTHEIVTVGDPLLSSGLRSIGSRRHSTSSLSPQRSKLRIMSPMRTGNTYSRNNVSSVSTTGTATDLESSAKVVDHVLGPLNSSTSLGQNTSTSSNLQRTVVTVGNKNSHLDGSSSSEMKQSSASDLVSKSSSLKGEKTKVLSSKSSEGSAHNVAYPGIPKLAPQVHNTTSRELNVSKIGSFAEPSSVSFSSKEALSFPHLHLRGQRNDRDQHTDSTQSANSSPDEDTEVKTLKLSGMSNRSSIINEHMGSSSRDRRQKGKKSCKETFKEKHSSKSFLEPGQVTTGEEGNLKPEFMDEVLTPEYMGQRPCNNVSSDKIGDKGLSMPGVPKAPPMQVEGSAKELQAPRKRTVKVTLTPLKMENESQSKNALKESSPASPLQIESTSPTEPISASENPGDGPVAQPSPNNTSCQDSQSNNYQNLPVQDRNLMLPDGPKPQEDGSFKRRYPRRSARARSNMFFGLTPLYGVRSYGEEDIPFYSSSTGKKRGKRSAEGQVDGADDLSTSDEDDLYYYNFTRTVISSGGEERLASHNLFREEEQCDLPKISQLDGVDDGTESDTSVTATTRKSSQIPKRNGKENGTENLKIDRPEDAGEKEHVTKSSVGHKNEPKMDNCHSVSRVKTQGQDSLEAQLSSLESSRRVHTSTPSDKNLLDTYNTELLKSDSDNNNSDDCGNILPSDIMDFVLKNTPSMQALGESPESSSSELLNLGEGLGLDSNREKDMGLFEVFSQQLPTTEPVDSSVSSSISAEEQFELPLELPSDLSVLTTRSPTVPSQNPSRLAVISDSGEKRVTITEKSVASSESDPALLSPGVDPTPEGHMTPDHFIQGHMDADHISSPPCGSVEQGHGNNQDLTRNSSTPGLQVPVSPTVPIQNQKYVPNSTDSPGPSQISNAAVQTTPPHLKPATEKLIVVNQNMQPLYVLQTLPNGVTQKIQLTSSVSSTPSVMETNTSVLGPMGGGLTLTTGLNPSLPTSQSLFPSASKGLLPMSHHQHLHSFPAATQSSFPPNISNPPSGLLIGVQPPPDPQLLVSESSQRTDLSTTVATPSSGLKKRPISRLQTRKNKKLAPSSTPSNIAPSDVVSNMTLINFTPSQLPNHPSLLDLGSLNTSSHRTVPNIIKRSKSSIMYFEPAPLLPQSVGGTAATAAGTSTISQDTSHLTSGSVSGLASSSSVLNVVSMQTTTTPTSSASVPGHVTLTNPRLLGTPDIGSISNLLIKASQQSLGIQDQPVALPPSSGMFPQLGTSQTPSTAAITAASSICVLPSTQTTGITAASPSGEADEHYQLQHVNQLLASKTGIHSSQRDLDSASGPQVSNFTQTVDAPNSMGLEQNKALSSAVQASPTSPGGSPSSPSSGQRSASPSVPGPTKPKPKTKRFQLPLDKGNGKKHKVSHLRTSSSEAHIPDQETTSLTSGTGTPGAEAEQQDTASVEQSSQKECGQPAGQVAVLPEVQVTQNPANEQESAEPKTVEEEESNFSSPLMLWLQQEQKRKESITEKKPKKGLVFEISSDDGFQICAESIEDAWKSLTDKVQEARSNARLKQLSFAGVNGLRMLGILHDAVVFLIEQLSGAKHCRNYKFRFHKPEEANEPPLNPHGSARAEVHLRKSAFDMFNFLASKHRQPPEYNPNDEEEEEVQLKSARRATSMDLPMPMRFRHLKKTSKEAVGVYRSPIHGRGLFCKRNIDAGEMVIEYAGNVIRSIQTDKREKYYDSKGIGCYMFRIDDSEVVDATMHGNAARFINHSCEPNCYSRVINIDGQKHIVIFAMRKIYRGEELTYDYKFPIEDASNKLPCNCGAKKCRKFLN

Compound | Potency | activity change, negative = inhibition
O=C1NN(c2ccc(Cl)c(Cl)c2)C(=O)/C1=C/c1cccc(OC(=O)c2cccs2)c1 | inconclusive: 89.1 µM [inhibitor, single point] | –
O=C(NCSc1ccncn1)c1ccccc1 | inconclusive: 7.94 µM [inhibitor, single point] | –
CO | – | inactive: 6.67%
N#Cc1nc(Cc2ccccc2)oc1NCCN1CCOCC1 | – | inactive: -3.24%
Cc1cc(C)cc(N(C(=O)c2nsc(Cl)c2Cl)C(C(=O)NC2CCCC2)c2ccc(O)cc2)c1 (configuration not stated) | inconclusive: 89.1 µM [quencher, side channel, single point] | –
CCC(=O)NCCc1nc2cc(NC(=O)c3ccc(F)cc3)ccc2n1C | inconclusive: 63.1 µM [fluorescent, single point] | –
COc1cc(CN2CCC(CO)(CCOc3ccccc3)CC2)cc(OC)c1 | inconclusive: 1.12 µM [fluorescent, side channel, full curve, poor fit] | –
COc1ccc(NC(=O)c2cc(S(=O)(=O)N(Cc3ccccc3)c3ccccc3)ccc2Cl)cn1 | inconclusive: 14.1 µM [fluorescent, side channel, full curve, poor fit] | –
O=C(O)c1ccccc1C(=O)c1cccc2ccccc12 | – | inactive: -3.18%
Cc1nc2sc(-c3ccccc3)cc2c(=O)n1/N=C/N(C)C | inconclusive: 35.5 µM [fluorescent, side channel, partial curve] | –
CCNC(=O)/C(C#N)=C/c1c(N(Cc2ccccc2)Cc2ccccc2)nc2ccccn2c1=O | – | inactive: 10.4%
COC(=O)C1=C(C)N(Cc2ccccc2)C(=NCCc2c[nH]c3ccccc23)N[C@H]1c1cccc(C(F)(F)F)c1 | inconclusive: 22.4 µM [quencher, side channel, partial curve] | –
COC(=O)c1c(C)[nH]c(C(=O)OCC(=O)NC(C)(C)C)c1C | inconclusive: 35.5 µM [fluorescent, side channel, partial curve] | –
O=C(COC(=O)CCN1C(=O)/C(=C\C=C\c2ccccc2)SC1=S)Nc1cc(F)ccc1F | inconclusive: 22.4 µM [fluorescent, side channel, partial curve] | –
CC1=NN(c2ccccc2)C(=O)/C1=C\c1cc(C)n(C)c1C | inconclusive: 20 µM [inhibitor, partial curve] | –
COc1ccc(N2CC(C(=O)Nc3c4c(nn3-c3ccc(OC)cc3)CS(=O)(=O)C4)CC2=O)cc1 (configuration not stated) | inconclusive: 89.1 µM [quencher, side channel, single point] | –
COc1ccc(OC)c(C(c2nnnn2C2CCCC2)N2CCN(c3ccc(F)cc3)CC2)c1 (configuration not stated) | – | inactive: -2.02%
O=C(N/N=C/c1cc(Cl)cc([N+](=O)[O-])c1O)C(O)(c1ccccc1)c1ccccc1 | inconclusive: 39.8 µM [inhibitor, partial curve] | –
Cc1cc(-c2ccc(Cl)cc2)n2nc(N)nc2n1 | – | inactive: 1.59%
C/C(=N\NC(=O)c1cc(C)oc1C)c1ccc(N2CCOCC2)cc1 | inconclusive: 79.4 µM [fluorescent, side channel, single point] | –
O=C(Cn1nnnc1CN1CCOCC1)N1CCC(c2cccc(Cl)c2)C1 (configuration not stated) | inconclusive: 8.91 µM [quencher, side channel, single point] | –

Compound | Potency | activity change, negative = inhibition
COc1ccccc1NC(=O)Cc1cccs1 | – | inactive: -1.34%
CCCCCc1c(O)nc(SCC(=O)NCC2CCCO2)[nH]c1=O (configuration not stated) | inconclusive: 3.16 µM [quencher, side channel, full curve] | –
O=C(Oc1ccc2c(c1)O/C(=C\c1ccncc1)C2=O)c1cccs1 | inconclusive: 39.8 µM [fluorescent, side channel, single point] | –
Cc1nc(SCC(=O)NCCc2ccccc2)nc(C)c1C | – | inactive: 10.1%
COc1ccc(CCNC(=O)c2c(O)c3ccccc3[nH]c2=O)cc1OC | inconclusive: 63.1 µM [inhibitor, single point] | –
Cc1ccc(Nc2c([N+](=O)[O-])ccc3nonc23)c(C)c1 | inconclusive: 8.91 µM [fluorescent, side channel, single point] | –
CCC/C=N/NC(=O)c1cc(Br)ccc1O | inconclusive: 35.5 µM [inhibitor, single point] | –
CN(C)S(=O)(=O)c1cc(NC(=O)CN2CCc3ccccc32)ccc1Cl | inconclusive: 7.08 µM [fluorescent, side channel, full curve] | –
CN1CCN(C=Nc2nc3ccccc3nc2N2CCCC2)CC1 | inconclusive: 35.5 µM [fluorescent, side channel, partial curve] | –
COc1ccc(CNC(=S)Nc2ccc(-c3ccccc3)cc2)cc1 | inconclusive: 5.62 µM [fluorescent, side channel, full curve, poor fit] | –
N#Cc1nc(-c2ccc(OCc3ccccc3)cc2)oc1NCCN1CCOCC1 | – | inactive: 4.4%
Cc1ccc(NC(=O)CSc2nnc(C)n2-c2ccccc2)cc1 | inconclusive: 31.6 µM [inhibitor, partial curve] | –
O=C(NCc1ccc2c(c1)OCO2)Nc1ccc(Cl)cc1 | inconclusive: 6.31 µM [fluorescent, side channel, full curve, poor fit] | –
Cc1ccc(C(C2C(=O)CC(C)(C)CC2=O)C2C(=O)CC(C)(C)CC2=O)s1 | inconclusive: 31.6 µM [inhibitor, single point] | –
O=C1CC(=O)N(Cc2ccco2)C(=O)N1 | – | inactive: 10.2%
O=C(COC(=O)c1ccc(O)cc1)Nc1ccc(N2CCCCC2)cc1 | – | inactive: 3.27%
O=C(Cn1nnc(-c2ccccc2)n1)NNC(=O)c1ccc(Br)cc1 | inconclusive: 10 µM [fluorescent, side channel, full curve] | –
CCOC(=O)Nc1ccc2nc3n(c(=O)c2c1)CCCCC3 | inconclusive: 7.94 µM [fluorescent, side channel, single point] | –
COc1ccc(NC(=O)CC(Cc2ccc(Cl)cc2)C(=O)O)cc1 (configuration not stated) | inconclusive: 11.2 µM [quencher, side channel, single point] | –
CCCCCCCC/C=C\CCCCCCCC(=O)O | inconclusive: 15.8 µM [fluorescent, side channel, single point] | –
COc1ccc(C2C(C(=O)N3CCN(C)CC3)c3cc(OC)c(OC)cc3C(=O)N2C)cc1 (configuration not stated) | inconclusive: 70.8 µM [fluorescent, side channel, single point] | –

Compound | Potency | activity change, negative = inhibition
COc1ccc(C)cc1-n1cnnn1 | inconclusive: 100 µM [inhibitor, partial curve, poor fit] | –
COc1ccnc(Oc2cc(Cl)cc(Cl)c2)c1C#N | inconclusive: 0.891 µM [quencher, side channel, full curve] | –
Cc1cccc(OCCOc2ccccc2C=C(C#N)C#N)c1 | inconclusive: 89.1 µM [quencher, side channel, single point] | –
COc1ccc(CS(=O)c2nc(C)cc(C)c2S(C)(=O)=O)cc1 (configuration not stated) | inconclusive: 15.8 µM [fluorescent, side channel, full curve] | –
Cn1cccc1-c1cc(C(=O)N/N=C/c2cc(Br)ccc2O)[nH]n1 | inconclusive: 7.94 µM [quencher, side channel, full curve] | –
CCCC(=O)Oc1ccc2c(C)cc(=O)oc2c1 | inconclusive: 25.1 µM [fluorescent, side channel, partial curve, poor fit] | –
CCOc1ccccc1C(=O)Nc1nnc(COC)s1 | – | inactive: 12.7%
O=C(N/N=C/c1ccnc2ccccc12)c1ccccc1O | inconclusive: 70.8 µM [inhibitor, single point] | –
O=C(Cc1ccc(Cl)cc1)Nc1ccc(C(=O)N2CCOCC2)cc1 | inconclusive: 8.91 µM [quencher, side channel, single point] | –
C/C(=N\NC(=S)Nc1cccc(C)c1)c1cc2ccccc2o1 | inconclusive: 25.1 µM [fluorescent, side channel, partial curve] | –
CCN1C(=S)N[C@@H](c2cccc(C(F)(F)F)c2)C(C(=O)OC)=C1C | inconclusive: 7.94 µM [quencher, side channel, full curve] | –
COc1ccccc1S(=O)Cc1ccc(C(=O)NC2CCCC2)o1 (configuration not stated) | inconclusive: 63.1 µM [fluorescent, side channel, single point] | –
C=CCNC(=S)Nc1sc2c(c1C#N)CCCC2 | inconclusive: 39.8 µM [fluorescent, side channel, partial curve] | –
CN(CC(=O)NC(c1ccccc1)c1ccccc1)Cc1nc2ccccc2c(=O)[nH]1 | inconclusive: 35.5 µM [inhibitor, single point] | –
Cc1ccc(-c2cc(C(F)F)n3ncc(C(=O)N4CCCCC4c4cccnc4)c3n2)cc1 (configuration not stated) | – | inactive: -2.99%
CCC/C(=N\NC(=O)c1ccccc1C)c1ccccc1 | inconclusive: 7.94 µM [fluorescent, side channel, partial curve] | –
CCCCNC(=S)N(C)/N=C/c1sc(N2CCCCC2)nc1-c1cccs1 | inconclusive: 89.1 µM [inhibitor, single point] | –
C=C(C)C(=O)Nc1cccc(C2=NOC3(C2)C[C@@H](C(N)=O)N(C(=O)/C(C)=C/C)C3)c1 (some centres not stated) | – | inactive: -1.14%
CCO/C=N/Nc1nc(C(F)(F)F)nc2c1cnn2Cc1ccccc1 | inconclusive: 63.1 µM [fluorescent, single point] | –
COc1ccc2nc(N3CCCC3)c(C#N)cc2c1 | inconclusive: 31.6 µM [fluorescent, side channel, partial curve] | –

Quoted from the listing:
In Potency, C/C(=N\NC(=S)Nc1cccc(C)c1)c1cc2ccccc2o1 is listed with inconclusive: 25.1 µM [fluorescent, side channel, partial curve]
In Potency, CN(CC(=O)NC(c1ccccc1)c1ccccc1)Cc1nc2ccccc2c(=O)[nH]1 is listed with inconclusive: 35.5 µM [inhibitor, single point]
In Potency, CCCCNC(=S)N(C)/N=C/c1sc(N2CCCCC2)nc1-c1cccs1 is listed with inconclusive: 89.1 µM [inhibitor, single point]

Source: PubChem BioAssay AID2662 (National Center for Advancing Translational Sciences (NCATS), 2010)
